Assay results as given in patent publication US20120041056A1, “NUCLEIC ACIDS SPECIFICALLY BINDING WITH HUMAN FACTOR VII/VIIA AND USES THEREOF” (LFB BIOTECHNOLOGIES, published 2012).
Construct, isoform or probe ends are uncertain for at least one entry. No signal at the amounts used counts as a negative.

System: Polyvalent immunoglobulins (Tegeline)
Experiment: SPR
Conditions: 5' spacer of 4 PEG(C18) and terminal biotin; 62-500 nM immunoglobulins; no binding; purified native protein; protein details: Tegeline, LFB; label: 5'-biotin; single-stranded DNA

GGGAGATAGCCACGACCTATGCAGCCAGCCGCAGTGTAAGTGAATGCAGACATGGTCTAAGTGTCCAGGCTGTGCGAAAGC [Mapt2 (biotin-PEG)]
binding result: no binding
